“Also recorded” adds a separate entry of the source. For some of these results: Not every detail of the peptide structures is certain; ends, links or a residue may be inferred. Some of these results come from one statement about several compounds together. Where a SMILES comes first, the peptide text is derived from it. Bridges are numbered along the chain shown (N, C = ends). The star is where a group is joined. DOTA = O=C(O)CN1CCN(CC(=O)O)CCN(CC(=O)*)CCN(CC(=O)O)CC1
Assays:
[1] = system: HNO97 xenografts; experiment: Small-animal PET imaging, HNO97 xenografts; settings: intraperitoneal, 30 min prior to the radiolabeled peptide
Experimental: All experiments were conducted in compliance with the German animal protection laws. Eight week old Balb c/c nude mice (Charles River Laboratories) were inoculated subcutaneously at the right shoulder with 5×10^6 HNO97 cells in BD MatriGel™ (BD Bioscience). Xenografts were grown to a tumor diameter of 10-15 mm. For small animal-PET imaging mice were anesthetized using isoflurane inhalation and injected via tail-vein with 50 MBq (2 nmol) of the ^68Ga-labeled DOTA-SFITGv6 peptide (see above) solution in 100 μL PBS. Images were recorded on an Inveon small-animal PET scanner (Siemens) using a 60 min emission scan in list mode and a 10 min transmission scan. Images were taken in 3-dimensional (3D) mode and reconstructed iteratively with a fully 3D algorithm from a 256×256 matrix for viewing transaxial, coronal, and sagittal slices of 0.9 mm thickness. […] Tissue-associated radioactivity was measured in a gamma counter (Berthold LB951G) and expressed as percentage of the injected dose per gram tissue (% ID/g). […]
3-dimensional (3D) PET images of whole mice were captured by the Siemens Inveon PET scanner as described in Example 1. […] Tissues were weighed and respective radioactivity was measured by a gamma counter (LB951G, Berthold Technologies). Values were expressed as percentage of the injected dose radioactivity (MBq) per gram tissue (% ID/g).

[2] = system: HNO223 cells; experiment: In vitro binding on HNO223 cells; format: cell-based, human; settings: Example 2, 10 min to 480 min (FIG. 16)
Experimental: For binding studies, 2.5×10^5 to 4×10^5 cells were seeded in 6-well plates and cultivated for 48 hours. Cells were incubated for 60 min with 1 mL serum-free medium containing the ^125I-labeled peptide (see above). For competition experiments, cells were simultaneously exposed to unlabeled (10^-4 M to 10^-10 M) and ^125I-labeled peptides. After three washing steps with PBS (pH 7.4) the cells were lysed with 0.5 mL of 0.3 M NaOH. Experiments concerning the internalization, kinetics and efflux were additionally performed with ^177Lu-DOTA-SFITGv6. […] To continue with the efflux experiment radioactive medium was replaced by non-radioactive medium and cells were incubated again for 60 to 240 min before measuring radioactivity of the cell lysates and the medium. […] Radioactivity was determined in a gamma counter and calculated as percentage of the applied dose per 1×10^6 cells. […]
For the assessment of the peptide binding capacity in vitro, 2.5-4×10^5 cells were seeded into 6-well plates and cultivated for 48 h. ^125I-labeled peptide resuspended in 1 mL serum-free medium was added and incubated for either 10 min or 60 min with or without different concentrations of unlabeled peptide (10^−4-10^−11 M). […] The internalization was assessed after exposure of the cells to ^177Lu-DOTA-labeled peptides for 10, 30, 60, 120, and 240 min at 37° C. […]

[3] = system: HNO97 cells; experiment: In vitro binding, kinetics, internalization and efflux on HNO97 cells; format: cell-based, human; settings: for binding of ^125I-labeled peptide: 60 min, percent applied dose/10^6 cells
Experimental: (§1) For binding studies, 2.5×10^5 to 4×10^5 cells were seeded in 6-well plates and cultivated for 48 hours. Cells were incubated for 60 min with 1 mL serum-free medium containing the ^125I-labeled peptide (see above). For competition experiments, cells were simultaneously exposed to unlabeled (10^-4 M to 10^-10 M) and ^125I-labeled peptides. After three washing steps with PBS (pH 7.4) the cells were lysed with 0.5 mL of 0.3 M NaOH. Experiments concerning the internalization, kinetics and efflux were additionally performed with ^177Lu-DOTA-SFITGv6. To evaluate kinetics and efflux HNO97 cells were incubated for different time intervals (10 min to 480 min) and 60 min, respectively, with ^177Lu-DOTA-SFITGv6 and lysed as described. To continue with the efflux experiment radioactive medium was replaced by non-radioactive medium and cells were incubated again for 60 to 240 min before measuring radioactivity of the cell lysates and the medium. For internalization experiments the cells were exposed to ^177Lu-DOTA-SFITGv6 for different time intervals (10 to 240 min) at 37° C. and 4° C. After three washing steps with PBS the cells were incubated with 1 mL of glycine-HCl 50 mmol/L in PBS (pH 2.8) for 10 min at RT to remove the surface bound activity. Then, cells were washed with 3 mL of ice-cold PBS and lysed as described. Radioactivity was determined in a gamma counter and calculated as percentage of the applied dose per 1×10^6 cells. Experiments were performed three times, and three repetitions per independent experiment were acquired.
(§2) For the assessment of the peptide binding capacity in vitro, 2.5-4×10^5 cells were seeded into 6-well plates and cultivated for 48 h. ^125I-labeled peptide resuspended in 1 mL serum-free medium was added and incubated for either 10 min or 60 min with or without different concentrations of unlabeled peptide (10^−4-10^−11 M). Afterwards, cell monolayers were washed three times with 1 mL phosphate-buffered saline (pH 7.4) to remove unbound peptide and the cells were harvested with 1.4 mL lysis buffer (0.3 M NaOH). To evaluate kinetic properties the cells were exposed to ^177Lu-DOTA-labeled peptides for 10, 30, 60, 120, and 240 min, respectively, and lysed as described. For the efflux experiments the cells were incubated with ^177Lu-DOTA-labeled peptides for 60 min. Thereafter, radioactive medium was replaced by non-radioactive medium and cell monolayers were incubated for additional 60, 120, and 240 min and afterwards lysed as described earlier. The internalization was assessed after exposure of the cells to ^177Lu-DOTA-labeled peptides for 10, 30, 60, 120, and 240 min at 37° C. Unspecifically bound peptide was removed from the surface by incubation with 1 M glycine-HCl solution (pH 2.2) for 10 min. The monolayer cell was rinsed with PBS and cells were lysed as described before. Radioactivity was determined in a y-counter and calculated as percentage of the applied dose per 1×10^6 cells. Experiments were performed three times, and three repetitions per independent experiment were acquired.

[4] = system: carcinoma cell lines; experiment: In vitro binding of radiolabeled peptides to several carcinoma cell lines; format: cell-based, human; settings: for binding capacity of ^125I-labeled peptide across HNSCC cell lines: HNO97, HNO399, HNO223, HNO210, HNO199, 60 min
Experimental: as §1
as §2, with “Unspecifically bound peptide was removed from the surface by incubation with 1 M glycine-HCl solution (pH 2.2) for 10 min. The monolayer cell was rinsed with PBS and cells were lysed as described before.” left out, “Experiments were performed three times, and three repetitions per independent experiment were acquired.” left out

[5] = system: UM-UC-5 cells; experiment: In vitro binding on UM-UC-5 cells; format: cell-based, human; settings: 60 min; percent applied dose/10^6 cells
Experimental: as §1, with “Then, cells were washed with 3 mL of ice-cold PBS and lysed as described.” left out, “Experiments were performed three times, and three repetitions per independent experiment were acquired.” left out

## CSCC[C@@H]1NC(=O)[C@H](CC(C)C)NC(=O)[C@H](CC(=O)O)NC(=O)CNC(=O)[C@H](CCCNC(=N)N)NC(=O)[C@H](Cc2ccccc2)NC(=O)[C@H]([C@@H](C)O)NC(=O)[C@@H](NC(=O)[C@H](CCCNC(=N)N)NC(=O)CNC(=O)CN2CCN(CC(=O)O)CCN(CC(=O)O)CCN(CC(=O)O)CC2)CSSC[C@@H](C(=O)N[C@@H](Cc2ccc(O)cc2)C(=O)N2CCC[C@H]2C(=O)N[C@@H](CC(=O)O)C(=O)O)NC(=O)[C@H](CC(C)C)NC(=O)[C@H](CCC(N)=O)NC1=O [^68Ga-DOTA-SFITGv6, metal not drawn] ({DOTA}-GRCTFRGDLMQLCYPD-OH; disulfide 3-13)
[1]
  tumor accumulation after pre-administration of unlabeled SFITGv6 as competitor: no intratumoral accumulation of the peptide was visible; also recorded: complete inhibition

## CSCC[C@@H]1NC(=O)[C@H](CC(C)C)NC(=O)[C@H](CC(=O)O)NC(=O)CNC(=O)[C@H](CCCNC(=N)N)NC(=O)[C@H](Cc2ccccc2)NC(=O)[C@H]([C@@H](C)O)NC(=O)[C@@H](NC(=O)[C@H](CCCNC(=N)N)NC(=O)CNC(=O)CN2CCN(CC(=O)O)CCN(CC(=O)O)CCN(CC(=O)O)CC2)CSSC[C@@H](C(=O)N[C@@H](Cc2ccc(O)cc2)C(=O)N2CCC[C@H]2C(=O)N[C@@H](CC(=O)O)C(=O)O)NC(=O)[C@H](CC(C)C)NC(=O)[C@H](CCC(N)=O)NC1=O [^177Lu-DOTA-SFITGv6, metal not drawn] ({DOTA}-GRCTFRGDLMQLCYPD-OH; disulfide 3-13)
[2]
  maximum binding capacity of ^177Lu-DOTA-labeled peptide (kinetics): 14.45%
[3]; % of the total bound peptide, Example 2, within 60 min
  internalization: up to 70%
[3]; Example 2, 10 min to 480 min (FIG. 16)
  maximum binding capacity of ^177Lu-DOTA-labeled peptide (kinetics): 22.15%
[3]; Example 2, FIG. 17A, B
  total bound ^177Lu-DOTA-labeled peptide (internalization experiment): up to 16.85%
[4]; within 120 min after termination of the uptake, HNO97, HNO399, HNO223
  efflux of originally accumulated peptide: more than 50%

## FDRGKMQL (125I label)
[5]
  binding of ^125I-labeled peptide: < 0.1%
[3]
  binding of ^125I-labeled peptide: < 0.1%

## FRGDAMQA (125I label)
[5]
  binding of ^125I-labeled peptide: < 0.1%
[3]
  binding of ^125I-labeled peptide: < 0.1%

## SFFN1: SFTI derivate with grafted fibronectin octamer GRGDSPAS (GRCTGRGDSPASCYPD; cyclised or stapled)
[4]
  binding capacity of ^125I-labeled peptide across HNSCC cell lines: < 1%

## SFTNC: SFTI derivate with grafted tenascin C octamer RRGDMSSN (GRCTRRGDMSSNCYPD; cyclised or stapled)
[4]
  binding capacity of ^125I-labeled peptide across HNSCC cell lines: < 1%

## SFVTN: SFTI derivate with grafted vitronectin octamer TRGDVFTM (GRCTTRGDVFTMCYPD; cyclised or stapled)
[4]
  binding capacity of ^125I-labeled peptide across HNSCC cell lines: < 1%

From patent US20200131227A1, “POLYPEPTIDE WITH TUMOUR BINDING ACTIVITY” (RUPRECHT-KARLS-UNIVERSITÄT HEIDELBERG, priority 2017, published 2020)
